From paper PMC12827483
These are yes or no findings as the source states them, for the method shown. Binding seen in cells or lysates may run through a third protein. Some binding calls cover weakened binding; strength is not graded here.

Protein sequences, listed by entry. Tags and fused reporters are not part of them.
UniProt Q8IX90: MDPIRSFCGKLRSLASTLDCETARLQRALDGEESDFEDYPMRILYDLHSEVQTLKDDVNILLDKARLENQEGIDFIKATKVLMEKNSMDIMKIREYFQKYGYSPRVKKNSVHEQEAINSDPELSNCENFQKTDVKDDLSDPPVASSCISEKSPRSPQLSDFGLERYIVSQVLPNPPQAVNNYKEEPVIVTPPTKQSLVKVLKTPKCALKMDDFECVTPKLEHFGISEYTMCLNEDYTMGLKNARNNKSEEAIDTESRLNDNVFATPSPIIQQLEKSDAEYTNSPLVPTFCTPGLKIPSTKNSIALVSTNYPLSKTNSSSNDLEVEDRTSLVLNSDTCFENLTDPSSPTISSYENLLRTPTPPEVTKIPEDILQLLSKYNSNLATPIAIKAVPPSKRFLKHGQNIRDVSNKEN
UniProt Q9GZT9: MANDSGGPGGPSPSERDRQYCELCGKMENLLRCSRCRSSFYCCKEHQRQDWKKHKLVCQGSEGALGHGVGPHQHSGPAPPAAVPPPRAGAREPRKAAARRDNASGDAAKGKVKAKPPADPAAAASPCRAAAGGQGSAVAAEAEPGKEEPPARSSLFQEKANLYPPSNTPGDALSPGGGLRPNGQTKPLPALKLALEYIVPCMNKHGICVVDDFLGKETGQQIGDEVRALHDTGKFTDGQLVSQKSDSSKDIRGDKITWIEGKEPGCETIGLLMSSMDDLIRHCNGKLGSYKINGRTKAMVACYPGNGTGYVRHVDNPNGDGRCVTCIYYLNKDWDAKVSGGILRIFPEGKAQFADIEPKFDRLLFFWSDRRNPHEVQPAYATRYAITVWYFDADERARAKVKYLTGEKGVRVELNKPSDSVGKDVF

Assays:
[1] = biological target: Spindle and Kinetochore Associated Protein 3 (SKA3) (human (endogenous in A549)) (UniProt Q8IX90); experiment: co-IP; endogenous proteins in IP lysis buffer lysates of A549 and A549-LMs cells; antibodies against PHD2 or SKA3 overnight at 4 °C, rabbit IgG control, Dynabeads Protein G; also after SKA3 siRNA; MG132 (25 μM) added for HIF-1α
[2] = biological target: Spindle and Kinetochore Associated Protein 3 (SKA3) (human (endogenous in A549)) (UniProt Q8IX90); experiment: proximity ligation; PLA in A549 cells, control (si-Ctrl) and SKA3 knockdown (si-SKA3); red puncta

binding [1]: binds
binding [2]: binds
Substance: Prolyl Hydroxylase Domain-containing protein 2 (PHD2) (from UniProt Q9GZT9 1-426) (enzyme)
